Reference: US9629817B2 (priority 2005, dated 2017)

Assays:
Pigs [1] = details: pig, in vivo, ip, 8 mg/kg
Description: Pigs of either sex and weighing between 20 and 35 kg were each anaesthetised with thiopentone sodium (10-15 mg/kg iv) and maintained under general anaesthesia with isoflurane (0.5-2% in oxygen). Artificial ventilation was maintained at a volume of 15 ml/kg and a rate of 12 breaths per minute. […] Subsequent to a mid-stemotomy and division of the pericardium, the left anterior coronary artery (LAD) was occluded mid-way along its length by permanent ligation.

Pigs [2] = details: ECG from half an hour prior to coronary occlusion to three hours post occlusion; riluzole ip 8 mg/kg

Compound: Nc1nc2ccc(OC(F)(F)F)cc2s1 [riluzole, 2-amino-6-tritluoromethoxybenzothiazole]
- region of discolouration of the epicardial layer distal to the coronary artery occlusion, vs control group (Pigs [1]): notably smaller and less discoloured
- P-R interval, riluzole vs control group (Pigs [2]): no significant differences
- QRS interval, riluzole vs control group (Pigs [2]): no significant differences
- R-R interval, riluzole vs control group (Pigs [2]): no significant differences
